# Some of the results follow. Shown are side measurements of this screen, not its main read-out; they come without a call. Compounds called inactive in the main read-out are mostly missing here. Words in brackets tell the shape of the fitted curve; partial curves, single points and poor fits give uncertain potencies.
# Assay: qHTS Assay for Lipid Storage Modulators in Drosophila S3 Cells;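 as to cell number change: cells counted by Cell Tracker Red CMTPX staining in the red channel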
# Details: BODIPY lipid droplet fluorescence, 18-24 h; for cell number change: measured here: cell count max response, cells fed with added oleic acid
# How it was run: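 Drosophila S3 cells got compounds at several concentrations plus oleic acid (400 uM solution). Laser-scanning cytometry with 488 nm excitation read lipid droplets at 500-530 nm and cells at 575-640 nm. Percent activity was relative to 20 uM Triacsin C.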
# [1] = measured here: lipid fluorescence (Fed channel) AC50, cells fed with added oleic acid
# [2] = measured here: cell number channel AC50, cells fed with added oleic acid
Compound,AC50 [1],cell number change [%],AC50 [2]
CCCn1c(=O)c2sccc2n2c(CCCC(=O)NCC3CCCO3)nnc12 (stereo not given),"18.4 µM [falling, partial curve]",–,–
Cc1ccc(S(=O)(=O)N2CCOCC2)cc1C(=O)N1CCCC1,–,-27.6,–
Cc1cccc(NC(=O)c2nc[nH]c2C(=O)N[C@@H](CCCCNC(=O)OC(C)(C)C)C(=O)OC(C)(C)C)c1,"18.4 µM [falling, single point]",-15.2,–
CC(C)CCn1c(SCC#N)nc2c(sc3ccccc32)c1=O,"29.1 µM [falling, single point]",-28.7,–
O=C(Cc1ccccc1)Nc1cc2c(cc1Cl)OCCCO2,"29.1 µM [rising, single point]",8.24,–
Cc1ccc(CSC2=NCCN2S(=O)(=O)c2ccccc2)cc1,–,-12.6,"0.731 µM [falling, partial curve, poor fit]"
O=C(NCc1ccco1)/C(=C\c1cccs1)NC(=O)c1ccco1,"6.51 µM [rising, single point]",-14.2,–
C=CCn1c(SCc2csc(C)n2)nc2sc3c(c2c1=O)CCCCC3,"0.0326 µM [rising, full curve, poor fit]",-0.472,–
Nc1c(C(O)(C(F)(F)F)C(F)(F)F)ccc2ccccc12,"29.1 µM [falling, partial curve]",-48.3,"29.1 µM [falling, single point]"
COc1cccc(N(CC(=O)NCCSc2ccc(Cl)cc2)S(C)(=O)=O)c1,"0.58 µM [falling, single point]",–,–
c1ccc(-c2nnc(C(c3ccccc3)c3ccccc3)o2)cc1,"7.31 µM [rising, partial curve]",35.7,"13 µM [rising, partial curve, poor fit]"
COc1cc(OC)c(NC(=O)c2ccco2)cc1Cl,"2.59 µM [rising, full curve]",-1.48,–
CCCN1C2=NCCN2c2ccccc21,–,4.16,–
COc1cc([C@@H]2CC=C(C(=O)O)[C@H](c3ccc(Cl)cc3)N2S(=O)(=O)c2ccc(C)cc2)cc(OC)c1OC,"0.651 µM [rising, single point]",-3.83,–
CCOC(=O)CC1C(=O)NCCN1S(=O)(=O)c1ccccc1 (stereo not given),–,104,–
O=C(CCS(=O)(=O)c1ccccc1)Nc1nc2ccc(F)cc2s1,–,83,–
CCN1CC=C2C(C#N)=C(N)C(C#N)(C#N)[C@H](c3cccc(OC)c3OC)[C@H]2C1,–,–,"1.3 µM [rising, partial curve]"
O=C(COc1ccccc1)Nc1ccc2[nH]c(=O)[nH]c2c1,"2.31 µM [falling, partial curve, poor fit]",–,–

# Taken from above.
# Entry for Nc1c(C(O)(C(F)(F)F)C(F)(F)F)ccc2ccccc12 under cell number change [%]: -48.3
# Entry for CCCN1C2=NCCN2c2ccccc21 under cell number change [%]: 4.16

# From PubChem BioAssay AID2685 (National Center for Advancing Translational Sciences (NCATS), 2010)
